Results deposited as PubChem BioAssay AID652243 (Drosophila RNAi Screening Center, 2013)
In all, the deposit lists about 24,000 reagents; shown is a random part of those with a known target gene and a result. In the full data, 246 (1%) were called active. 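Plates not normalised; calls are printed but the firefly/Renilla ratio behind them is not deposited; fold cut for lowering reported inconsistently.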 The raw values are shown without normalisation. The numbers tell different reagents against one gene apart. Names joined by + are all predicted targets of the reagent. Not stated in the record: the amount of reagent.

- Purpose: 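Fly regulators of androgen-dependent reporter output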 (primary screen)
- Cells: Drosophila S2R+ cells
- Reagents: long dsRNA against Drosophila genes
- Duration: 72 h (48 h, then 24 h hormone)
- Challenge: synthetic androgen R1881 at 10 nM for 24 h
- Measured: 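Per-well raw luminescence of the androgen-driven firefly reporter and of the Renilla control, two replicates each, without normalisation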
- Direction: firefly reporter light: higher = more light from androgen-responsive reporter; Renilla control light: higher = more constitutive control signal (cell number, transfection)
- Hit rule: 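Hit when the log firefly-to-Renilla ratio dropped or increased by a fixed fold versus the mean of GFP or LacZ controls across duplicate plates; lowering cut given as 1.5 and as 3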
- Calls: active = hit: reporter lowered or raised; inactive = no hit

The opening 7 records, ahead of the listing:
firefly reporter light, replicate 1	firefly reporter light, replicate 2	Renilla control light, replicate 1	Renilla control light, replicate 2	activity call	gene	reagent
5.61e5	4.21e5	2.68e6	2.44e6	inactive	cmpy	1
1.86e5	1.90e5	2.08e6	2.04e6	inactive	ND-49L	1
9.00e5	5.46e5	2.62e6	1.77e6	inactive	ND-49L	2
4.87e5	2.97e5	2.03e6	1.81e6	inactive	otk	1
6.12e5	5.29e5	1.40e6	1.32e6	inactive	otk	2
				inactive	otk	3
				inactive	otk	4

Results, repeating the preview:
firefly reporter light, replicate 1	firefly reporter light, replicate 2	Renilla control light, replicate 1	Renilla control light, replicate 2	activity call	gene	reagent
5.61e5	4.21e5	2.68e6	2.44e6	inactive	cmpy	1
1.86e5	1.90e5	2.08e6	2.04e6	inactive	ND-49L	1
9.00e5	5.46e5	2.62e6	1.77e6	inactive	ND-49L	2
4.87e5	2.97e5	2.03e6	1.81e6	inactive	otk	1
6.12e5	5.29e5	1.40e6	1.32e6	inactive	otk	2
				inactive	otk	3
				inactive	otk	4
2.52e5	2.46e5	1.93e6	1.71e6	inactive	CG11269	1
71708	91357	7.41e5	5.44e5	inactive	CG3156	1
1.07e6	6.28e5	3.78e6	1.74e6	inactive	CG3156	2
1.71e6	1.86e6	3.08e6	3.02e6	inactive	Cyp6a17	1
3.92e5	4.19e5	2.90e6	1.97e6	inactive	CG8661	1
6.15e5	6.25e5	1.59e6	1.75e6	inactive	CG8661	2
2.78e5	2.34e5	2.60e6	3.05e6	inactive	HSPBAP1	1
3.23e5	3.02e5	2.31e6	2.29e6	inactive	CG17575	1
2.08e5	2.01e5	3.45e5	4.23e5	inactive	CG17575	2
64481	50343	1.27e6	1.27e6	inactive	Klp54D	1
1.90e5	2.61e5	1.98e6	2.26e6	inactive	PH4alphaMP	1
6.72e5	5.98e5	1.82e6	1.95e6	inactive	S-Lap1	1
2.05e5	2.24e5	1.35e6	1.66e6	inactive	CG5781	1
1.31e5	1.15e5	2.56e5	2.67e5	inactive	Ir94f	1
7.93e5	6.74e5	1.12e6	1.29e6	inactive	vas (retired record)	1
1.07e6	9.41e5	1.88e6	1.28e6	inactive	vas (retired record)	2
1.04e5	1.49e5	1.99e6	1.99e6	inactive	CG42288	1
2.88e5	2.99e5	9.38e5	1.08e6	inactive	CG42288	2
7.38e5	6.81e5	1.73e6	1.73e6	inactive	CG42288	3
1.09e5	1.23e5	8.98e5	1.02e6	inactive	Ttc19	1
8.45e5	7.83e5	2.08e6	2.08e6	inactive	CG3955	1
4.37e5	4.52e5	2.85e6	3.41e6	inactive	CG1552	1
6.76e5	6.34e5	1.06e6	8.41e5	inactive	CG1552	2
1.19e5	47948	2.23e6	8.05e5	inactive	Taf7	1
1.69e5	2.23e5	6.72e5	8.81e5	active	Taf7	2
1.65e5	2.24e5	2.20e6	2.39e6	inactive	CG4520	1
3.52e5	3.65e5	8.94e5	7.77e5	inactive	CG4520	2
3.90e5	3.09e5	3.06e6	1.96e6	inactive	Sgs7	1
5.01e5	3.63e5	2.45e6	1.89e6	inactive	Asap	1
9.80e5	4.70e5	1.49e6	9.38e5	inactive	Asap	2
3.67e5	3.69e5	8.08e5	6.64e5	inactive	CG44002 + CR44003	1
4.13e5	3.74e5	2.66e6	2.35e6	inactive	Poxm	1
5.16e5	1.07e6	9.57e5	1.79e6	inactive	Poxm	2
6.18e5	7.28e5	1.45e6	2.09e6	inactive	Wwox	1
3.58e5	7.44e5	8.12e5	1.89e6	inactive	Wwox	2
2.24e5	2.69e5	6.23e5	7.07e5	inactive	Wwox	3
8.74e5	1.02e6	1.66e6	1.16e6	inactive	slp1	1
3.68e5	2.70e5	1.02e6	6.24e5	inactive	slp1	2
8.50e5	6.66e5	1.71e6	1.46e6	inactive	sima	1
8.43e5	8.51e5	1.68e6	1.63e6	inactive	sima	2
7.38e5	7.51e5	1.54e6	1.62e6	inactive	CG33795	1
78546	1.34e5	4.82e5	5.18e5	inactive	mtt	1
80812	1.26e5	2.05e5	3.84e5	inactive	mtt	2
4.27e5	2.85e5	2.68e6	1.90e6	inactive	mtt	3
2.40e5	3.03e5	2.08e6	2.16e6	inactive	mtt	4
4.37e5	6.04e5	1.34e6	1.37e6	inactive	CG32686	1
1.34e6	1.71e6	1.65e6	2.08e6	inactive	CG32686	2
1.76e5	2.84e5	1.49e6	1.27e6	inactive	spaw	1
4.78e5	8.45e5	1.14e6	2.19e6	inactive	CG34398	1
7.15e5	5.37e5	1.82e6	1.74e6	inactive	CG34398	2
1.73e5	1.75e5	1.47e6	1.16e6	inactive	CG34398	3
7.56e5	6.05e5	9.27e5	1.00e6	inactive	CG34398	4
